Assay results reported in patent publication US20230159436A1, “APPLICATIONS OF AMIDE ANALOGS OF TRITERPENES IN CURES OF CANCER AND OTHER DISEASES” (Pacific Arrow Limited, priority 2021, published 2023).
Some results were stated once for a whole list of compounds, not compound by compound. At least one compound was matched to its structure with a doubt left.

Columns and labels:
[1] = Pharmacokinetic (PK) study: blood from cutting tail; format: in vivo, mice; settings: IP 100 mg/kg
Procedure: Pharmacokinetic (PK) Study: Blood from Cutting Tail • Method: • Drug-Treatment: • Mice: CD-1 female mice (6-7 weeks, 23-25 g) • mice were injected (IP) with Test drug sample (10 mg/ml, in […] at a dose of 100 mg/kg. • Blood was obtained from a mouse by cut-tail at 0.5, 2 and 4 hours after drug treatments. • At 24 hours after the drug treatment, mice were anesthetized with isoflurane and blood was obtained with cardiac puncture. Animals were then euthanized by cervical dislocation. • Plasma Isolation: • Blood (50-100 ul) was centrifuged (2000 g, 15 minutes). Plasma was collected from the top layer. • 1 volume of plasma was mixed with 3 volume of acetonitrile/0.005% TFA. Mixture was stored in refrigerator overnight. • Sample was centrifuged (16000 g,10 minutes). Supernatant (called Plasma in 75% AN/TFA soluble fractions) was collected and subjected to HPLC analysis. • HPLC Analysis Conditions: • Column: C18 μBondapak • Solvent: 60% acetonitrile/0.005% TFA (Trifluoroacetic acid) • Gradient: isocratic • Flow rate and run time: 1 ml/min for 30 minutes • Detection wavelength: 207 nm • O.D. range: 0.05 full scale • Calculation: • Standard cures of Test Drug is constructed (Area/3000K=1 ug Test Drug) • Area of Test Drug Peak from Sample is Recorded • Amount of Test Drug was calculated according to standard cures.

[2] = Pharmacokinetic (PK) study: blood from cardiac puncture; format: in vivo, mice; settings: IP 100 mg/kg
Procedure: Pharmacokinetic (PK) Study: Blood from Cardiac Puncture • Method: • Drug-Treatment: • Mice: CD-1 female mice (8-10 weeks, 25-30 g) • mice were injected (IP) with Test Drug (10 mg/ml, in 10% DMSO-20% Tween-80 in PBS) at a dose of 100 mg/kg. • At 1 and 2 hours after drug treatments, individual animals were anesthetized with isoflurane. • blood was obtained by cardiac puncture (between the chest-ribs bones). Animals were then euthanized by cervical dislocation. • Plasma Isolation: • Blood (0.6-0.8 ml) was centrifuged (2000 g, 15 minutes). Plasma was collected from the top layer. • 1 volume of plasma was mixed with 3 volume of acetonitrile/0.005% TFA. Mixture was stored in −20° C. for 6 minutes. • Sample was centrifuged (16000 g, 10 minutes). Supernatant was subjected to HPLC analysis. • HPLC Analysis Conditions: • Column: C18 μBondapak • Solvent: 60% acetonitrile/0.005% TFA (Trifluoroacetic acid) • Gradient: isocratic • Flow rate and run time: 1 ml/min for 30 minutes • Detection wavelength: 207 nm • O.D. range: 0.05 full scale • Calculation: • Standard cures of Test Drug is constructed (Area/3000K=1 ug Test Drug) • Area of Test Drug peak from Sample is Recorded • Amount of Test Drug was calculated according to standard cures.

SMILES	Test Drug in blood cleared ([1]; during the first 4 hours)	Test Drug in blood cleared ([2]; during the first 4 hours)	Test Drug in blood cleared ([1]; during the first 8 hours)	Test Drug in blood cleared ([2]; during the first 8 hours)
CC=C(C)C(=O)OCC1(C)C(O)CCC2(C)C1CCC1(C)C2CC=C2C3CC(C)(C)C(O)C(O)C3(COC(=O)C(C)=CC)C(O)CC21C (stereo not drawn) [Tig-R, 24,28-O-Tigloyl-3β,16α,21β,22α,24β,28-hexahydroxyolean-12-ene]	over 80%	over 80%		
CC=C(C)C(=O)NCC1(C)C(O)CCC2(C)C1CCC1(C)C2CC=C2C3CC(C)(C)C(O)C(O)C3(CNC(=O)C(C)=CC)C(O)CC21C (stereo not shown) [E4D-Tig-R]			over 80%	over 80%
